We go through five molecules from PMC11115967.

The chains behind the UniProt entries cited, without tags or fusion partners.
UniProt P33334: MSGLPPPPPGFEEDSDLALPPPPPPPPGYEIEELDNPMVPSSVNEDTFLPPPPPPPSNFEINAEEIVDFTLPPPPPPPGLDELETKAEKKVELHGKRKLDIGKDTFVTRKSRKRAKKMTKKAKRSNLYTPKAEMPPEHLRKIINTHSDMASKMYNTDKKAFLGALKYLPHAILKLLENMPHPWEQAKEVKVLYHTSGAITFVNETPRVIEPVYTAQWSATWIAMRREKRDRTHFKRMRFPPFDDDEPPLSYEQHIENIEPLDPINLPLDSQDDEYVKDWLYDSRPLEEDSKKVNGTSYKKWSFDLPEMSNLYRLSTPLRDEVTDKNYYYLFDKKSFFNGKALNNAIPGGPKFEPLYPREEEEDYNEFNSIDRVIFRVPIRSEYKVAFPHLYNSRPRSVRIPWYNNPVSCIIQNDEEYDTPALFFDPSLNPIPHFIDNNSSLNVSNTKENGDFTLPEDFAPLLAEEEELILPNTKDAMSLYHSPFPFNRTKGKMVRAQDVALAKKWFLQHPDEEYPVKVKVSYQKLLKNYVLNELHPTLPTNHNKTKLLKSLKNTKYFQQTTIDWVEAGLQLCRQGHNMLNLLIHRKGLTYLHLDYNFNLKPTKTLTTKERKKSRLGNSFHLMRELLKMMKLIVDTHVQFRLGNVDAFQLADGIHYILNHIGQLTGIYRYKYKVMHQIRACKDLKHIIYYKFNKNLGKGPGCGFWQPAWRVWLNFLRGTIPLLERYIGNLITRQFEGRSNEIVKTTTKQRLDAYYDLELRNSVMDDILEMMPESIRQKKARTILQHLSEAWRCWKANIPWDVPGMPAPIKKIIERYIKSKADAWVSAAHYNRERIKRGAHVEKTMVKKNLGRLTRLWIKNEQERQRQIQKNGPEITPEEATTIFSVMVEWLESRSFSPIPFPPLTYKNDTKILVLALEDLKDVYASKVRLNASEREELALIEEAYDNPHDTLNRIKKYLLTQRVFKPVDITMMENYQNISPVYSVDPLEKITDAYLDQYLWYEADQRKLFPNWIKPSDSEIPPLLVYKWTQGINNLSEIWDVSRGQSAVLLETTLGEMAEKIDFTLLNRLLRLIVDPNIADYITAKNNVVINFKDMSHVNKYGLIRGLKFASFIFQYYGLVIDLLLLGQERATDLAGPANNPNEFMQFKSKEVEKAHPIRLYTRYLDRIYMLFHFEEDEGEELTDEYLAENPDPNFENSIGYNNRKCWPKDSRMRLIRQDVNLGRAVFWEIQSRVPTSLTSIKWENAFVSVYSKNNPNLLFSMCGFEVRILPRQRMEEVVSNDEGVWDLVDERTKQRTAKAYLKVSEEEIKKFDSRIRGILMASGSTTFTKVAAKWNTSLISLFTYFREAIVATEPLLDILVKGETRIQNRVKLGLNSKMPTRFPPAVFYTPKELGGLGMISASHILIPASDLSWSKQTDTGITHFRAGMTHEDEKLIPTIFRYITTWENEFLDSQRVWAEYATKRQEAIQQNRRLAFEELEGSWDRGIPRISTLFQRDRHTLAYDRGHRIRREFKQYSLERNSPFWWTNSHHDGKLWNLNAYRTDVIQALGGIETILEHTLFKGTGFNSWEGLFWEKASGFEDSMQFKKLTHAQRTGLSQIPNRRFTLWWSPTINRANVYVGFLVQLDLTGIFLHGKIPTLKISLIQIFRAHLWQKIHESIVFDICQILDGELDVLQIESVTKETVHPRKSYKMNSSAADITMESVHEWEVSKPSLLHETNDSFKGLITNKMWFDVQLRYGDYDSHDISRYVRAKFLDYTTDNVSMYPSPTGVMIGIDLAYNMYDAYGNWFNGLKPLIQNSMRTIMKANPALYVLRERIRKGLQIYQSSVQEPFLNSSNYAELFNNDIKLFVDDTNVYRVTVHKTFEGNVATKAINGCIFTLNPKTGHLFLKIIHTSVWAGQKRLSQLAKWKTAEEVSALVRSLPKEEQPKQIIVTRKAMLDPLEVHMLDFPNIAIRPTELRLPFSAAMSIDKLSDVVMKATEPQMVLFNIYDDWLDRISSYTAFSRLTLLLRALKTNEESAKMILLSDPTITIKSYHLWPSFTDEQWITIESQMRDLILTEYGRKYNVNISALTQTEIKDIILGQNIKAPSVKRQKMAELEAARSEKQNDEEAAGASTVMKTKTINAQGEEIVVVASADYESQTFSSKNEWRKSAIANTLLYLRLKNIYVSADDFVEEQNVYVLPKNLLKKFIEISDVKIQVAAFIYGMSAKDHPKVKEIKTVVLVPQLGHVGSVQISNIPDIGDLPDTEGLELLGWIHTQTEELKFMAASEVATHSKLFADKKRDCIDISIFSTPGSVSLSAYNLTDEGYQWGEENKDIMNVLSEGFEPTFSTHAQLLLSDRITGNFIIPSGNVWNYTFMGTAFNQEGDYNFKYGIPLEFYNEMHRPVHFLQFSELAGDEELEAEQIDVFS

Assay [1] concerns the target T1, hexa-HA-tagged Prp4p (S. cerevisiae) (UniProt P20053).
T1 sequence: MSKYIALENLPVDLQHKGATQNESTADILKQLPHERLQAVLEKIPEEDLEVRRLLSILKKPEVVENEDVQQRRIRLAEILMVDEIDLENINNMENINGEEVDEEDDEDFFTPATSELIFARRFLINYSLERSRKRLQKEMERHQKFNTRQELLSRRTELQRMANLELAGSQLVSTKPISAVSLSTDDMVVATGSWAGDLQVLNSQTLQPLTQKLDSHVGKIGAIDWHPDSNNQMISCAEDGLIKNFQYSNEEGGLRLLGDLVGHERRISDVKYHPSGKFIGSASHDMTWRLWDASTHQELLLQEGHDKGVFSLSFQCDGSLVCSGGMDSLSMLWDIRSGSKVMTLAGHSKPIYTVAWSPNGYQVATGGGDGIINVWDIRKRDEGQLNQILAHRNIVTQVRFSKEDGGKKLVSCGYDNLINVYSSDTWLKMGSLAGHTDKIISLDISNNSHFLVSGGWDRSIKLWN
The assay can be described thus: co-IP; immunopurification of the spliceosome: 1 mg extract of UV-irradiated WT (yBD608) and rrp6-Δ (yBD614) cells with genomically hexa-HA-tagged Prp4p, anti-HA antibody, protein A-agarose, 4°C; western blot. (In general: Immunoblotting shows a protein as a band on a membrane.)

For assay [2], the target named is T2, Rrp47-TAP (S. cerevisiae) (UniProt P38801).
T2 sequence: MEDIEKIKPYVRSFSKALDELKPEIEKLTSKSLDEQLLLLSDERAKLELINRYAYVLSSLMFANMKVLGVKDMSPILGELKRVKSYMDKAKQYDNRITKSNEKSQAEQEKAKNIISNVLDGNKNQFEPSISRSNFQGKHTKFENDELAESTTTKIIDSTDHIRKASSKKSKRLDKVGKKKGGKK
Description: SEC; Biogel P-200 gel filtration (0.2 M Tris-HCl pH 8.0, 0.2 M NaCl) of extract of UV-irradiated yeast expressing Rrp6-ΔC2 and Rrp47-TAP (yBD-527); fractions blotted with anti-Rrp4p, anti-Rrp6p and anti-TAP.

For the next assay, the target named is T3, Rrp4p (S. cerevisiae) (UniProt P38792).
T3 sequence: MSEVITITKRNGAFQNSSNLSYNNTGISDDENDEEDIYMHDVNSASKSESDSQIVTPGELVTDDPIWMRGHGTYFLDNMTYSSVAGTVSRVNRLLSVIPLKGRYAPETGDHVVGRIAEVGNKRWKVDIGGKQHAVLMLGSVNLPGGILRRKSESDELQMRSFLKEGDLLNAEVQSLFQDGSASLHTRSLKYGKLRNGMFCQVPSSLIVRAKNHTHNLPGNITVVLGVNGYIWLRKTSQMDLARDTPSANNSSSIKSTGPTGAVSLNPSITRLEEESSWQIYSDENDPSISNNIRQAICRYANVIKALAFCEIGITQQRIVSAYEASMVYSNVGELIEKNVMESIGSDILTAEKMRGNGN
Described as above.

For assay [3], the target named is T2, Rrp47-TAP (S. cerevisiae). The assay can be described thus: condition: only in gel-filtration fractions 13-18 (legend: 11 to 18); co-IP; fractions 11 to 18 of the Biogel P-200 column (yBD-507 extract) precipitated with anti-TAP antibody and blotted with anti-TAP, anti-Rrp4p and anti-Mtr4p.

These are yes or no findings as the source states them, for the method shown. For part of these data: In cells and extracts the contact can be indirect. Some entries that bind do so weakly or less than the wild type. For part of these data: Where a sequence is shown, tags or fusion partners need not be part of it.

Take Prp8p (from UniProt P33334 1-2413): in assay [1], the binding entry is given as “binds”.

B1: Spp381p (protein, UniProt P38282 1-291)
chain: MSFRHFKRRLDTSSADESSSADEEHPDQNVSLTEKSASLSHSDLGGEILNGTGKNRTPNDGQESNESDGSPESDESPESEESSDNSDSSDSDDMRPLPRPLFMKKKANNLQKATKIDQPWNAQDDARVLQTKKENMIKNIDKANQVAKNYETMKLRLNTNYSTNEELIKQCLLLDDNDEVDSEKERQKWFERQNERKQKHRRIQLAKQRESEEYEAKRFEAMQKGKDGNTKYDVILDKEKEKLDHKKQRSAEKVEKSHNNNRYKITRTKNVEFGDLGKNSRDYEETEYSVI
As for B1, in assay [1], the binding result is recorded as “binds”.

B2: Rrp6p-ΔC2 (domain or fragment, UniProt Q12149 1-522)
chain: MTSENPDVLLSRVINVVRAASSLASQDVDFYKNLDRGFSKDLKSKADKLADMANEIILSIDEHHESFELKEEDISDLWNNFGNIMDNLLEMSDHSLDKLNCAINSKSRGSDLQYLGEFSGKNFSPTKRVEKPQLKFKSPIDNSESHPFIPLLKEKPNALKPLSESLRLVDDDENNPSHYPHPYEYEIDHQEYSPEILQIREEIPSKSWDDSVPIWVDTSTELESMLEDLKNTKEIAVDLEHHDYRSYYGIVCLMQISTRERDYLVDTLKLRENLHILNEVFTNPSIVKVFHGAFMDIIWLQRDLGLYVVGLFDTYHASKAIGLPRHSLAYLLENFANFKTSKKYQLADWRIRPLSKPMTAYARADTHFLLNIYDQLRNKLIESNKLAGVLYESRNVAKRRFEYSKYRPLTPSSEVYSPIEKESPWKILMYQYNIPPEREVLVRELYQWRDLIARRDDESPRFVMPNQLLAALVAYTPTDVIGVVSLTNGVTEHVRQNAKLLANLIRDALRNIKNTNEEATPI
Turning to B2, the binding entry in assay [2] was “binds”; in the assay with Rrp4p (S. cerevisiae), “no binding”.

B3: Nrd1p (protein, UniProt P53617 1-575)
chain: MQQDDDFQNFVATLESFKDLKSGISGSRIKKLTTYALDHIDIESKIISLIIDYSRLCPDSHKLGSLYIIDSIGRAYLDETRSNSNSSSNKPGTCAHAINTLGEVIQELLSDAIAKSNQDHKEKIRMLLDIWDRSGLFQKSYLNAIRSKCFAMDISNNTANTASQQLSLDPKQRSKQILSNLKKSPPLNLNISLPTDLTSTDPAKQQAALFQVIAALQKHFKTLPSHTSVGTVAPPQAHTITEYGSRRERERERERYNSRRNRSRSPPAPFSQPSTGRKDRYPSVAQDQYSIGAPNTTFGTNNHHLYPDELNVSNNPHYRPKPVSYDSTLPPDHIKVYSRTLFIGGVPLNMKEWDLANVLKPFAEVQSVILNNSRKHAFVKVYSRHEAENVLQNFNKDGALPLRTRWGVGFGPRDCCDYQHGYSIIPMHRLTDADKKWSVSAQWGGTSGQPLVTGIVFEEPDIIVGEGVSSKAISQKMPTDSGRNGPRSGKPNKSGSISSISPVPYGNAPLASPPPQQYVQPMMQQPYGYAPNQPLPSQGPAAAAPPVPQQQFDPTAQLNSLMNMLNQQQQQQQQS
With B3, the binding result in assay [1] is given as “no binding”.

B4: Rrp4p (protein, UniProt P38792 1-359)
chain: MSEVITITKRNGAFQNSSNLSYNNTGISDDENDEEDIYMHDVNSASKSESDSQIVTPGELVTDDPIWMRGHGTYFLDNMTYSSVAGTVSRVNRLLSVIPLKGRYAPETGDHVVGRIAEVGNKRWKVDIGGKQHAVLMLGSVNLPGGILRRKSESDELQMRSFLKEGDLLNAEVQSLFQDGSASLHTRSLKYGKLRNGMFCQVPSSLIVRAKNHTHNLPGNITVVLGVNGYIWLRKTSQMDLARDTPSANNSSSIKSTGPTGAVSLNPSITRLEEESSWQIYSDENDPSISNNIRQAICRYANVIKALAFCEIGITQQRIVSAYEASMVYSNVGELIEKNVMESIGSDILTAEKMRGNGN
Take B4: the binding result in assay [3] is on record as “no binding”.
